The values are deposited in ChEMBL (CHEMBL3988442, “University of Dundee, Small-Polar-MMV Screening Library” (2021)).

Chains of the proteins cited; added tags and fusions are not shown. Residues count along the entry.
UniProt Q8IDJ8, 1-583: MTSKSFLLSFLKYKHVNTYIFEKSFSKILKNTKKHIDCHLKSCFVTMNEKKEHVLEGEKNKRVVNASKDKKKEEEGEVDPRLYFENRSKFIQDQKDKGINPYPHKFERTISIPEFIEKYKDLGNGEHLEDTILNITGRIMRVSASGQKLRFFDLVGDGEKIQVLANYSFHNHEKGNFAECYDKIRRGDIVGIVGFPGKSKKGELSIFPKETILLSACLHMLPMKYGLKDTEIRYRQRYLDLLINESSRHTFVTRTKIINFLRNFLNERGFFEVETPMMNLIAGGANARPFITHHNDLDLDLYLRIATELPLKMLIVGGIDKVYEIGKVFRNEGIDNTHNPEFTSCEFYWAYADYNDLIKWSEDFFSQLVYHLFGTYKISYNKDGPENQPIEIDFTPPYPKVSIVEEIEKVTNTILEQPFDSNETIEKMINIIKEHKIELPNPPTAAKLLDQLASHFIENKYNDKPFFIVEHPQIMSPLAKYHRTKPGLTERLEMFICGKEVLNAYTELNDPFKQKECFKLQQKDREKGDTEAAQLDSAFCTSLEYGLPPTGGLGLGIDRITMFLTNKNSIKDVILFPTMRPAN

T. brucei: 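Whole-parasite assay of Trypanosoma brucei over 72 hours; the read-out is not stated. Compounds at 30 µM. Direction is inferred from retests: higher values go with stronger inhibition. Values scatter widely below zero; nearly all retest evidence comes from the higher of the two concentrations used. About 64,000 compounds were tested under these conditions; 1.5% (about 940) showed 50% or more at least once.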
PfKRS1: 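Lysine-tRNA ligase, Plasmodium falciparum 3D7 (UniProt Q8IDJ8). Enzyme assay of the cytosolic lysyl-tRNA synthetase in 384-well plates, read by luminescence. Tested at 30 µM. Direction is inferred from only a few compounds that gave an IC50; most scored high, so higher reads as stronger inhibition. Size under these conditions: about 69,000 compounds, about 49 of them at 50% or above in at least one test.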

The filed quantity is “Percent Effect” (%). The record does not define 0% and 100%; most values in the screen are far below 50% and negative numbers occur (in some assays of this library far below -100). The compounds are a random part of those screened.

O=C(CSc1nccc(-c2ccc3c(c2)OCO3)n1)N1CCOCC1 gave T. brucei: -17.37%; PfKRS1: 2.371%.
O=C(NCCCn1ccnc1)C1CCC(=O)N1Cc1cccs1 (stereo not given) gave T. brucei: -26.65%; PfKRS1: 2.79%.
Cc1nc(CN2CC(=O)N(C)c3ccccc3C2=O)no1 gave T. brucei: -6.521%; PfKRS1: 3.988%.
CN(C)CCN1C[C@@H]2CN(c3ccccc3)C[C@@H]2C1=O gave PfKRS1: -1.028%.
CCOC1COC2(CCN(Cc3ccc(C)cc3)CC2)C1 (stereo not given) gave PfKRS1: 4.99%.
COc1ccc(CN2CCN(CC3CC3)[C@@H]3CS(=O)(=O)C[C@@H]32)cc1O gave PfKRS1: 1.935%.
OCCN1CCCC(c2nccnc2Oc2ccc(F)cc2)C1 (stereo not given) gave T. brucei: 10.07%; PfKRS1: -0.1445%.
Cc1cnc(NC(=O)C(C)Oc2ccc3c(c2)OCO3)s1 (stereo not given) gave PfKRS1: 2.11%.
CCC(NC1CSCCSC1)c1ccc(S(C)(=O)=O)cc1 (stereo not given) gave T. brucei: 16.24%; PfKRS1: 0.8616%.
CCN1CC2(CCN(C(=O)C3CSC(C)(C)C(=O)N3)CC2)CC1=O (stereo not given) gave T. brucei: -49.53%; PfKRS1: 2.486%.
CC(C)N1[C@H](Cn2cccn2)C[C@@H]2CN(Cc3ccoc3)CC[C@@H]21 gave PfKRS1: -3.962%.
O=C1O[C@@H]2CN(c3ccccn3)C[C@@H]2N1CCCc1ccc(F)cc1 gave PfKRS1: 2.849%.
Cc1nc(-c2cc(Cl)c3c(c2)CC(CN)O3)c[nH]1 (stereo not given) gave T. brucei: -48.86%; PfKRS1: 1.328%.
Cn1ccnc1-c1ccc(NCCC2COc3ccccc3O2)nn1 (stereo not given) gave T. brucei: -17.77%; PfKRS1: 3.753%.
Cc1cc(N(C)C)nc(C2(C)CCCN2C(=O)c2cnccn2)n1 (stereo not given) gave T. brucei: 18.54%; PfKRS1: -0.6792%.
O=C1N(Cc2ccc(F)c(F)c2)CCCC12CCN(C1CCCC1)C2 (stereo not given) gave T. brucei: -86.64%; PfKRS1: 2.09%.
CC(c1ccccn1)N(C)C(=O)NCCn1c(=O)oc2ccccc21 (stereo not given) gave T. brucei: -15.96%; PfKRS1: -5.337%.
Cc1ccccc1C(=O)N1C[C@@H](O)[C@H](N2CCOCC2)C1 gave T. brucei: -3.051%; PfKRS1: 2.519%.
CN(Cc1nnc(C2CC2)o1)C1CCCN(c2cccnn2)C1 (stereo not given) gave T. brucei: 3.377%; PfKRS1: 1.715%.
Cc1cnc(CN2CCCC2c2noc(C)n2)cn1 (stereo not given) gave T. brucei: -10.06%; PfKRS1: 1.136%.
Cc1ncc2c(n1)CN(c1ncnc3[nH]ccc13)CC2 gave T. brucei: -13.69%; PfKRS1: -3.563%.
CO[C@H]1CCN(S(=O)(=O)c2cn(C)cn2)[C@H]1Cc1ccncc1 gave T. brucei: 10.2%; PfKRS1: 5.146%.
O=C(CC1CCCC1)N1C[C@@H]2CCN(c3cccnc3)C[C@@H]2C1 gave PfKRS1: 1.749%.
CN(C)c1cccc(C(=O)N2C[C@H]3CC[C@@H]2CN(C(=O)C2CCC2)C3)c1 gave PfKRS1: 4.841%.
O=C1CCC(C(=O)NCCOc2cccc(Cl)c2Cl)CN1 (stereo not given) gave T. brucei: -44.06%; PfKRS1: 5.868%.
CCn1cnnc1CNC(=O)N1CCN(c2ccccc2OC)CC1 gave T. brucei: -7.188%; PfKRS1: 1.111%.
Cc1n[nH]c(C)c1-c1cnc(C2CCN(S(C)(=O)=O)CC2)cn1 gave T. brucei: 9.457%; PfKRS1: -1.179%.
N#Cc1ccc(CN2CCCCC2Cn2cccn2)cc1 (stereo not given) gave T. brucei: -15.51%; PfKRS1: 0.6722%.
CCC1CN(C(=O)c2ccc(O)cn2)CCC(=O)N1Cc1ccccc1 (stereo not given) gave T. brucei: -46.86%; PfKRS1: 0.1557%.
CC(C)c1nnc2n1CCN(C(=O)c1ccc3c(c1)CCC3)C2 gave T. brucei: -15.83%; PfKRS1: -1.181%.
CCC1=N[C@@]2(CC[C@@H]3CN(Cc4ccc(Cl)cc4)C[C@@H]32)C(=O)N1C gave PfKRS1: 4.133%.
CN(Cc1ccccn1)C(=O)c1cc(CN2CCC(O)CC2)on1 gave T. brucei: 3.047%; PfKRS1: 2.573%.
CN(C)CCN1C(=O)CCC12CCCN(C(=O)c1ccncc1F)C2 (stereo not given) gave PfKRS1: 1.606%.
CCc1cc(=O)n(CC(=O)N2CCCC2)c(-c2ccc(F)cc2)n1 gave T. brucei: 16.01%; PfKRS1: 5.094%.
CN1C(=O)COc2ccc(NC(=O)CCc3nc4cccnc4[nH]3)cc21 gave T. brucei: -11.22%; PfKRS1: 6.472%.
O=C(C1COCCO1)N1CCN(CC(F)(F)F)c2ccccc21 (stereo not given) gave T. brucei: 4.779%; PfKRS1: 6.767%.
Cc1ccc2c(c1)cc(CN1CC[C@](C)(O)[C@H](C)C1)n2C gave T. brucei: -12.41%; PfKRS1: -1.119%.
Cc1cc(-c2cnc(N3CCOCC3)nc2-c2ccc(C)s2)on1 gave T. brucei: -6.528%; PfKRS1: 4.176%.
O=C(Cn1nc(C(F)(F)F)c(Br)c1C1CC1)N1CCOCC1 gave T. brucei: -14.54%; PfKRS1: -0.8923%.
COc1cc(CCC(=O)N2CCC(c3cnccn3)CC2)on1 gave T. brucei: -11.94%; PfKRS1: 2.943%.
CNC(=O)c1cccc(C2CNCCN2C(=O)c2cccc(F)c2)c1 (stereo not given) gave PfKRS1: 0.6205%.
Cc1ccccc1C(C(=O)N(Cc1cnn(C)c1)CC(C)C)N(C)C (stereo not given) gave T. brucei: -11.47%; PfKRS1: 5.455%.
Cc1nc(CN2CCCC(N(C)Cc3nnc(C4CC4)o3)C2)no1 (stereo not given) gave T. brucei: -12.43%; PfKRS1: 0.3994%.
[H][C@@]12CCN(Cc3cccs3)C[C@@]1([H])O[C@H](c1ccnc(C)n1)C2 gave T. brucei: -81.39%.
[H][C@@]12CN(Cc3cccc(C(F)(F)F)c3)C[C@]1(C(=O)O)CNC2=O gave T. brucei: -40.39%.
CC(Cn1cccn1)NC(=O)NCc1ccnc(OC2CCCC2)c1 (stereo not given) gave T. brucei: 23.74%; PfKRS1: 3.213%.
CCn1c(CN(C)CC(=O)N(C)C)nc2c(F)cccc21 gave T. brucei: -21.79%; PfKRS1: 6.102%.
Cc1nnc(NC(=O)CN2CCCC(Cn3cncn3)C2)s1 (stereo not given) gave T. brucei: -19.66%; PfKRS1: 5.156%.

For reference, 3 entries once more:

With CC(c1ccccn1)N(C)C(=O)NCCn1c(=O)oc2ccccc21 (stereo not given) the screen gave T. brucei: -15.96%; PfKRS1: -5.337%.
With Cc1nc(CN2CCCC(N(C)Cc3nnc(C4CC4)o3)C2)no1 (stereo not given) the screen gave T. brucei: -12.43%; PfKRS1: 0.3994%.
With Cc1nc(-c2cc(Cl)c3c(c2)CC(CN)O3)c[nH]1 (stereo not given) the screen gave T. brucei: -48.86%; PfKRS1: 1.328%.